The target in the experiment is T1, TIGIT (human (endogenous in CD8+ T cells from PBMCs)) (UniProt Q495A1).
T1 sequence: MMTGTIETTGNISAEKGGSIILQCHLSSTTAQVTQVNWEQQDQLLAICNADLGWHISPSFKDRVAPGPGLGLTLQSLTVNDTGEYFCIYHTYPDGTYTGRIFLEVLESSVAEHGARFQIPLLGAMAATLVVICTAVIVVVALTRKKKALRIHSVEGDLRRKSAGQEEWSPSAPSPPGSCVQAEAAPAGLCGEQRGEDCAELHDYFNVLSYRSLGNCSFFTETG
Description: co-IP; lysate of CD8+ T cells cultured with Fc-CD155; antibody incubated with the supernatant at 4 °C overnight, Protein A/G Sepharose beads 6 h, three washes, western blot. (In western blotting, separated proteins are transferred to a membrane and probed.)

This is an account of results in article PMC9210727.

No constants are given. Whether binding was seen depends on the method and setting. In cells and extracts the contact can be indirect. Some entries that bind do so weakly or less than the wild type.

B1: SH2-containing inositol phosphatase 1 (SHIP-1) (enzyme, UniProt Q92835 1-1189)
chain: MVPCWNHGNITRSKAEELLSRTGKDGSFLVRASESISRAYALCVLYRNCVYTYRILPNEDDKFTVQASEGVSMRFFTKLDQLIEFYKKENMGLVTHLQYPVPLEEEDTGDDPEEDTVESVVSPPELPPRNIPLTASSCEAKEVPFSNENPRATETSRPSLSETLFQRLQSMDTSGLPEEHLKAIQDYLSTQLAQDSEFVKTGSSSLPHLKKLTTLLCKELYGEVIRTLPSLESLQRLFDQQLSPGLRPRPQVPGEANPINMVSKLSQLTSLLSSIEDKVKALLHEGPESPHRPSLIPPVTFEVKAESLGIPQKMQLKVDVESGKLIIKKSKDGSEDKFYSHKKILQLIKSQKFLNKLVILVETEKEKILRKEYVFADSKKREGFCQLLQQMKNKHSEQPEPDMITIFIGTWNMGNAPPPKKITSWFLSKGQGKTRDDSADYIPHDIYVIGTQEDPLSEKEWLEILKHSLQEITSVTFKTVAIHTLWNIRIVVLAKPEHENRISHICTDNVKTGIANTLGNKGAVGVSFMFNGTSLGFVNSHLTSGSEKKLRRNQNYMNILRFLALGDKKLSPFNITHRFTHLFWFGDLNYRVDLPTWEAETIIQKIKQQQYADLLSHDQLLTERREQKVFLHFEEEEITFAPTYRFERLTRDKYAYTKQKATGMKYNLPSWCDRVLWKSYPLVHVVCQSYGSTSDIMTSDHSPVFATFEAGVTSQFVSKNGPGTVDSQGQIEFLRCYATLKTKSQTKFYLEFHSSCLESFVKSQEGENEEGSEGELVVKFGETLPKLKPIISDPEYLLDQHILISIKSSDSDESYGEGCIALRLEATETQLPIYTPLTHHGELTGHFQGEIKLQTSQGKTREKLYDFVKTERDESSGPKTLKSLTSHDPMKQWEVTSRAPPCSGSSITEIINPNYMGVGPFGPPMPLHVKQTLSPDQQPTAWSYDQPPKDSPLGPCRGESPPTPPGQPPISPKKFLPSTANRGLPPRTQESRPSDLGKNAGDTLPQEDLPLTKPEMFENPLYGSLSSFPKPAPRKDQESPKMPRKEPPPCPEPGILSPSIVLTKAQEADRGEGPGKQVPAPRLRSFTCSSSAEGRAAGGDKSQGKPKTPVSSQAPVPAKRPIKPSRSEINQQTPPTPTPRPPLPVKSPAVLHLQHSKGRDYRDNTELPHHGKHRPEEGPPGPLGRTAMQ
B1: the binding entry was “binds”.
